The campaign covered roughly 330,000 compounds. About 7,700 (2.3%) were called active. This list was built around the results that the source calls inconclusive (neither active nor inactive); the mix of calls is not that of the screen. Calls come from the whole dose curve; as a rule, active = well fitted inhibition curve with a large enough effect; inconclusive = small, poorly fitted or top-dose-only effect, or effect the other way; inactive = flat fitted curve, though single readings scatter. Potencies of inconclusive entries are doubtful fits and often do not repeat.
experiment: qHTS screen for small molecules that inhibit ELG1-dependent DNA repair in human embryonic kidney (HEK293T) cells expressing luciferase-tagged ELG1; details: HEK293T ELG1-luciferase reporter, luminescence, 16 h, DNA damage induced by 5-fluorouridine; series mostly up to 46.1 µM; note: nearly all actives have a fitted effect of over 55% in size
How it was run: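 HEK293T cells expressing luciferase-tagged ELG1 (2,000/well) received 5-Fluorouridine plus compound or DMSO for 16 hr at 37 °C. Luciferase was read by ONE-Glo luminescence after 30 min at room temperature.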
Potency is the fitted concentration of half-maximal effect.

SMILES | Potency
COc1cc2c(cc1OC)C(C)N(C(=S)NC(=O)c1ccccc1)CC2 (configuration not stated) | inconclusive: 16.4 µM [inhibitor, single point]
Cc1cccnc1NC(=O)c1cccc(S(=O)(=O)N2CCCc3ccccc32)c1 | inconclusive: 29.1 µM [inhibitor, single point]
CC1CCCN(C(=O)c2cc3c(=O)n4ccccc4nc3s2)C1 (configuration not stated) | inconclusive: 13 µM [activator, partial curve]
O=[N+]([O-])c1ccc(-c2ccc(/C=N/Nc3nc(NCc4ccccc4)nc(N4CCOCC4)n3)o2)cc1 | inconclusive: 2.31 µM [inhibitor, partial curve]
CCn1c(COc2ccccc2)nnc1SCC(=O)Nc1cc(OC)ccc1OC | inconclusive: 20.6 µM [inhibitor, partial curve, poor fit]
COc1ccc(CN2CCCC(C(=O)Nc3cccc(-n4cccn4)c3)C2)c(F)c1 (configuration not stated) | active: 16.4 µM
O=C(OC1CCCCC1)c1ccc(NC(=O)C2CCCCC2)cc1 | inconclusive: 20.6 µM [inhibitor, single point]
COc1ccc(CNS(=O)(=O)NCc2ccccc2F)cc1 | inconclusive: 2.06 µM [activator, partial curve, poor fit]
COc1cccc(-c2sc3ccccc3c2-c2ccc(OCCN(C)C)cc2)c1 | inconclusive: 29.1 µM [activator, single point]
Clc1c(-c2nnc3n2CCC3)sc2ccccc12 | inconclusive: 20.6 µM [activator, single point]
Cc1ccccc1CNC(=O)C(=O)NCCC1CCCCN1S(=O)(=O)c1cccs1 (configuration not stated) | inconclusive: 4.11 µM [inhibitor, single point]
COCCCNC(=S)NNC(=O)c1ccccn1 | inconclusive: 9.2 µM [inhibitor, partial curve]
S=C(NCCN1CCOCC1)Nc1ccccc1Cl | inactive
NC(=O)C1=C[C@H](c2ccccc2)C[C@H](OCc2ccc(CO)cc2)O1 | inconclusive: 20.6 µM [activator, partial curve]
CC1=NNC(=O)/C1=C\c1cn(-c2ccccc2)nc1-c1ccccc1 | inconclusive: 29.1 µM [inhibitor, single point]
Cc1nonc1CN(C)C(=O)c1cc(COc2ccc(F)cc2Cl)on1 | inconclusive: 23.1 µM [activator, single point]
COCc1cc(C)[nH]c(=O)c1C(=O)NC12CC3CC(CC(C3)C1)C2 | active: 18.3 µM
Cc1cccc(N2C(=O)N3[C@H]4c5ccccc5OC[C@@H]4[C@@H](c4ccccc4)[C@@]3(C)C2=O)c1 | inactive
COc1cc(OC)cc(C(=O)N[C@H](C(=O)NC2=NCCS2)C(C)C)c1 | inactive
COC(=O)C(Sc1nc(C)cc(C)c1C#N)c1ccccc1 (configuration not stated) | inconclusive: 20.6 µM [activator, partial curve, poor fit]
CCCOc1ccccc1OCC(=O)Nc1ccc(S(=O)(=O)N2CCCC2)cc1 | inconclusive: 29.1 µM [inhibitor, single point]
c1ccc2c(COn3nnc4ccccc43)cccc2c1 | inconclusive: 14.6 µM [activator, partial curve]
COc1ccc(-c2noc(CN(C(=O)c3ccc4c(c3)OCO4)C(C)C)n2)cc1 | inconclusive: 20.6 µM [inhibitor, single point]

Individual results from the list:
Potency, Clc1c(-c2nnc3n2CCC3)sc2ccccc12 is entered as inconclusive: 20.6 µM [activator, single point]
Potency, Cc1ccccc1CNC(=O)C(=O)NCCC1CCCCN1S(=O)(=O)c1cccs1 (configuration not stated) is entered as inconclusive: 4.11 µM [inhibitor, single point]
Potency, NC(=O)C1=C[C@H](c2ccccc2)C[C@H](OCc2ccc(CO)cc2)O1 is entered as inconclusive: 20.6 µM [activator, partial curve]

(further entries)

SMILES | Potency
Cc1cccc(-c2nnc(SCC(=O)N3CCOCC3)o2)c1 | inconclusive: 18.3 µM [activator, partial curve]
Cn1c(=O)c2c(ncn2Cc2nnc(N)s2)n(C)c1=O | inactive
CCCCNC(=S)NC(=O)c1ccccc1Br | inconclusive: 13 µM [activator, partial curve]
COc1ccc(C(=O)NCCc2nnc3ccc(SCC(=O)NCc4ccccc4)nn23)cc1 | inconclusive: 14.6 µM [activator, partial curve]
CN(C)CCNC(=S)Nc1ccccc1Cl | inactive
O=c1cc(CN2CCN(S(=O)(=O)c3ccccc3)CC2)nc2ccc(Cl)cn12 | inconclusive: 29.1 µM [inhibitor, single point]
CCOc1ccc(CN2CCN(S(=O)(=O)c3ccc(NC(C)=O)cc3)CC2)cc1 | inconclusive: 5.8 µM [inhibitor, partial curve]
O=C(NNC(=O)c1ccc(O)cc1O)c1ccc(Cl)cc1 | inconclusive: 29.1 µM [activator, single point]
NS(=O)(=O)c1ccc(CCNS(=O)(=O)Cc2ccc(Cl)cc2)cc1 | inactive
CCc1ccc(OCCCC(=O)Nc2nnc(C3CCCO3)s2)cc1 (configuration not stated) | inactive
CN(C(=O)c1cccc(NC(=O)C2CCN(C(=O)OC(C)(C)C)CC2)c1)C1CCC1 | inconclusive: 20.6 µM [inhibitor, partial curve, poor fit]
CC1(C)CC(=O)C2=C(C1)NC(SCC(=O)Nc1ccccc1)=C(C#N)C21CCCCC1 | inconclusive: 25.9 µM [inhibitor, single point]
Cc1c(NC(=O)c2ccccc2N(C)S(=O)(=O)c2ccccc2)c(=O)n(-c2ccccc2)n1C | inconclusive: 25.9 µM [inhibitor, partial curve, poor fit]
COc1ccc(S(=O)(=O)Nc2ccc3c(c2)n(C)c(=O)n3C)cc1C | inconclusive: 11.6 µM [activator, partial curve, poor fit]
CCCCN1C(=S)NC[C@@H]1c1ccccc1 | inactive
O=[N+]([O-])c1cccc(/C=N/N2CCN(c3ccccn3)CC2)c1 | inconclusive: 4.11 µM [activator, partial curve]
O=[N+]([O-])c1cccc(-c2ccc(/C=N/NC(=S)Nc3cccc(F)c3)o2)c1 | inconclusive: 23.1 µM [inhibitor, single point]
Cc1cc(C(=O)N/N=C/c2c(C)nn(-c3ccccc3)c2Cl)n[nH]1 | inconclusive: 20.6 µM [activator, partial curve]
O=C(Nc1ccnc(-c2ccncc2)n1)C1CC1 | inactive
O=C(N/N=C/c1cccnc1)c1cccc(F)c1 | inconclusive: 29.1 µM [activator, single point]
O=C(O)C12CC3CC(C1)CC(n1ncc(NCc4ccco4)c(Cl)c1=O)(C3)C2 | inactive
CCCn1c(SCC(=O)NCCCN2CCCC2=O)nc2ccccc2c1=O | inconclusive: 3.66 µM [activator, partial curve, poor fit]
Cc1cc(NC(=O)Nc2ccc(Cl)c(Cl)c2)n(-c2ccccc2)n1 | inactive

SMILES | Potency
O=C(c1ccc(Cn2c(=O)[nH]c3ccsc3c2=O)cc1)N1CCN(c2ccccc2)CC1 | inconclusive: 16.4 µM [inhibitor, single point]
COc1cc(-c2cc(C(=O)Nc3cccc(C(C)=O)c3)c3ccccc3n2)cc(OC)c1OC | active: 1.64 µM
Cc1cc2c(cc1C)C(c1ccccc1F)CC(=O)N2 (configuration not stated) | inconclusive: 10 µM [inhibitor, single point]
CC12CCC(C(=O)NNc3ccccc3)(C(=O)C1=O)C2(C)C (configuration not stated) | inactive
CCC(CC)C(=O)Nc1cc(C(=O)OC)cc(C(=O)OC)c1 | inconclusive: 18.4 µM [inhibitor, single point]
COc1ccccc1CNC(=O)C(=O)NCCC1CCCCN1S(=O)(=O)c1cccs1 (configuration not stated) | inconclusive: 20.6 µM [inhibitor, partial curve]
CCCCC[n+]1cccc2c3ccccc3ccc21 | inconclusive: 6.51 µM [inhibitor, single point]
COc1ccccc1N(CC(=O)NCc1ccccc1)C(=O)CCC(=O)Nc1nccs1 | inconclusive: 29.1 µM [inhibitor, single point]
CCOc1ccc(-c2noc(-c3ccncc3)n2)cc1OCC | inconclusive: 29.1 µM [inhibitor, single point]
Cc1onc(-c2ccccc2)c1CNC(=O)Nc1ccc(F)cc1F | inconclusive: 32.6 µM [inhibitor, single point]
S=C(Nc1ccc(Br)cc1)N1CCCC1 | inconclusive: 20.6 µM [activator, single point]
Cc1cccc(NC(=S)N(C)Cc2cn(C)c3ccccc23)c1 | inconclusive: 20.6 µM [inhibitor, single point]
Cc1ccc(S(=O)OCC(=O)Nc2cc(Cl)ccc2N2CCOCC2)cc1 (configuration not stated) | inconclusive: 23.1 µM [inhibitor, partial curve, poor fit]
Cc1c(C(=O)O)oc2ccc(S(=O)(=O)NCCC3=CCCCC3)cc12 | inactive
COc1ccc(NC(=O)CSc2nnc(-c3ccncc3)n2C)cc1 | inconclusive: 14.6 µM [activator, partial curve, poor fit]
O=C(Cc1cccs1)NCCSc1c(-c2ccc(Cl)cc2)[nH]c2ccccc12 | inconclusive: 29.1 µM [inhibitor, single point]
Cc1[nH]c(C)c2c(=O)[nH]ncc12 | inconclusive: 13 µM [activator, partial curve]
COC(=O)c1c(C(=O)OC)c(-c2ccc(C)cc2)n2c1CS(=O)C2 (configuration not stated) | inconclusive: 16.4 µM [activator, partial curve, poor fit]
Cn1c(-c2cccc(OCc3ccccc3)c2)nc2c1c(=O)[nH]c(=O)n2Cc1ccccc1 | inconclusive: 6.51 µM [activator, single point]
O=C(COC(=O)c1cc(Cl)ccc1[N+](=O)[O-])NCc1ccc(Cl)cc1Cl | inactive
Clc1ccc(Cn2nnc(-c3ccccc3)n2)cc1 | inconclusive: 20.6 µM [activator, partial curve]

A different layout for part of the listing above.
Cc1cccc(NC(=S)N(C)Cc2cn(C)c3ccccc23)c1
  Potency: inconclusive: 20.6 µM [inhibitor, single point]
Cc1c(C(=O)O)oc2ccc(S(=O)(=O)NCCC3=CCCCC3)cc12
  Potency: inactive
